Results are given in words; binding and its absence hold for the method and conditions named. Some binding calls cover weakened binding; strength is not graded here. Where a sequence is shown, tags or fusion partners need not be part of it.
Molecular target: T1, mouse CD137-Fc chimeric protein (mouse), P20334
T1 chain: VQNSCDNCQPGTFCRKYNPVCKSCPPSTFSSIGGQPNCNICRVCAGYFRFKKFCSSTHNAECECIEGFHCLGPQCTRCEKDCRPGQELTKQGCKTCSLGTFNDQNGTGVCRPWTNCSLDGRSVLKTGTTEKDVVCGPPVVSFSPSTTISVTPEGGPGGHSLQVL
Test: SPR, CD137-Fc captured, binder injected
Settings: remark: other sources report otherwise

B1: PRO963 (protein)
chain: DIQMTQSPSSLSASVGDRVTITCQASQSINDYLAWYQQKPGKAPKLLIYKASTLASGVPSRFSGSGSGTDFTLTISSLQPEDFATYYCQQGYIITDIDNVFGTGTKVTVLGGGGGSQVQLQESGPGLVKPSETLSLTCKVSGFSFSNSYWICWIRQPPGKGLEWIGCTFVGSSDSTYYANWAKGRVTISVDSSKNQFSLKLSSVTAADTAVYYCARHPSDAVYGYANNLWGQGTLVTVSSGGGGSGGGGSGGGGSGGGGSIQMTQSPSSLSASVGDRVTITCQASQSINNVLAWYQQKPGKAPKLLIYRASTLASGVPSRFSGSGSGTDFTLTISSLQPEDFATYYCQSSYGNYGDFGTGTKVTVLGGGGGSQVQLQESGPGLVKPSETLSLTCKVSGFSFSSGYDMCWIRQPPGKGLEWIGCVVAGSVDITYYASWAKGRVTISVDSSKNQFSLKLSSVTAADTAVYYCARKDAYSDAFNLWGQGTLVTVSSGGGGSGGGGSIQMTQSPSSLSASVGDRVTITCQSSESVYSNNQLSWYQQKPGQPPKLLIYDASDLASGVPSRFSGSGSGTDFTLTISSLQPEDFATYYCAGGFSSSSDTAFGGGTKLTVLGGGGGSGGGGSGGGGSGGGGSEVQLVESGGGLVQPGGSLRLSCAASGFSLSSNAMGWVRQAPGKGLEYIGIISVGGFTYYASWAKGRFTISRDNSKNTVYLQMNSLRAEDTATYFCARDRHGGDSSGAFYLWGQGTLVTVSS
B1 was tested, and the binding was “binds”.

Source: patent publication EP3470426A1
